Data reported in patent US20060241040A1 (published 2006).
No constants are given. Whether binding was seen depends on the method and setting. For some of these results: In cells and extracts the contact can be indirect. Some binding calls cover weakened binding; strength is not graded here. Sequences can lack the tags named with a protein.

Amino acid sequences for entries named in this document (tags omitted). A change or cut given only in a name is not applied to a line headed by its entry. Chains listed by the source or under a name are the forms on record and can include a tag or linker. Residues count along the entry.
UniProt O00206: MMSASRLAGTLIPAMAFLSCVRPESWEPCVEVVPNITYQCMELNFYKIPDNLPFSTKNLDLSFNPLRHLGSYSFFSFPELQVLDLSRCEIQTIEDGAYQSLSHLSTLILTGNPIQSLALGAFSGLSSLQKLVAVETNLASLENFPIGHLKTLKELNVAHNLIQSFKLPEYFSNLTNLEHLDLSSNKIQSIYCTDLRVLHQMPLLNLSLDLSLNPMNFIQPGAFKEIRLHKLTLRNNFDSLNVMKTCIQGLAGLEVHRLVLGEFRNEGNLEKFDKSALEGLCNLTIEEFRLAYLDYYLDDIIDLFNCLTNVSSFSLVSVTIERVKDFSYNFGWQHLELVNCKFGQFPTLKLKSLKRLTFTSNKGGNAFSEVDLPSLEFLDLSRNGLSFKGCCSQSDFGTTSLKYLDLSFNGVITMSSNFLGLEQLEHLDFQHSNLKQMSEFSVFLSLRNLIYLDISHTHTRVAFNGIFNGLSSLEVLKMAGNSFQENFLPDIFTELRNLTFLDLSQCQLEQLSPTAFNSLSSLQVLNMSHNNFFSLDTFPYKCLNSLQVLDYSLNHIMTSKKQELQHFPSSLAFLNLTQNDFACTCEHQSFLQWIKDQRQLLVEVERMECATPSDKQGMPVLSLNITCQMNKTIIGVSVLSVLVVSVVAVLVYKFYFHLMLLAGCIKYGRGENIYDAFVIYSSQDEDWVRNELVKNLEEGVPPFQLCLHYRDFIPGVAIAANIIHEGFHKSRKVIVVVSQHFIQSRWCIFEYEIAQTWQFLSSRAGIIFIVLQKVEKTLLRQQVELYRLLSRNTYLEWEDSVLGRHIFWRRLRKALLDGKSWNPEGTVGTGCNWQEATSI
FLAG-tagged TLR4 stably expressed in cells: residues 24-839 of O00206
FLAG tagged extracellular TLR4 chimeric protein: residues 24-631 of O00206

Legend:
[1] = molecular target: FLAG tagged extracellular TLR4 chimeric protein (UniProt O00206); experiment: biotin-LPS capture in the soluble phase, anti-FLAG blot (not shown)
[2] = molecular target: YFP tagged full length TLR4 expressed on HEK293 cells (UniProt O00206); experiment: conclusion of Example 2 (co-immunoprecipitation, FIG. 2B)
[3] = molecular target: YFP tagged full length TLR4 expressed on HEK293 cells (UniProt O00206); experiment: co-immunoprecipitation with TLR4^YFP from surface-biotinylated cells, anti-biotin blot (FIG. 2B)
[4] = molecular target: FLAG-tagged TLR4 stably expressed in cells (UniProt O00206); experiment: co-immunoprecipitation from lysates of cells expressing TLR4^FLAG and MD-2^FLAG with anti-TLR4 mAb HTA125, Western blot anti-FLAG-HRP. This blot is the one described by the legend of FIG. 3B
[5] = molecular target: YFP tagged full length TLR4 expressed on HEK293 cells (UniProt O00206); experiment: biotin-LPS (1 µg/ml) pull-down with streptavidin beads from HEK/TLR4^YFP cells given supernatant of MD-2 transduced HEK293 cells as source of soluble MD-2; TLR4^YFP is captured through LPS-loaded MD-2; Western blot anti-GFP
[6] = molecular target: YFP tagged full length TLR4 expressed on HEK293 cells (UniProt O00206); experiment: co-immunoprecipitation from surface-biotinylated HEK293 cells expressing TLR4^YFP and MD-2 with polyclonal anti-GFP, non-reducing SDS-PAGE, Western blot anti-biotin-HRP; cells untreated or treated with LPS
[7] = molecular target: FLAG-tagged TLR4 stably expressed in cells (UniProt O00206); experiment: biotin-LPS/streptavidin capture of TLR4^FLAG and MD-2^FLAG together from cell lysates; ratio said to be 1:1 (FIG. 3B, lane 1)
[8] = molecular target: TLR4:Fc fusion protein (entire extracellular domain of hTLR4, amino acids 1-632, fused to the Fc portion of mouse IgG2a) (human; mouse) [IgG part: P01863]; experiment: ELISA-like assay: TLR4:Fc (20 µg/ml) captured on protein A coated plates, 6xHis tagged MD-2 titrated 0.1 to 50 nM without or with LPS, detection with Ni-HRP, absorbance at 450 nm
[9] = molecular target: TLR4:Fc fusion protein (entire extracellular domain of hTLR4, amino acids 1-632, fused to the Fc portion of mouse IgG2a) (human; mouse) [IgG part: P01863]; experiment: ELISA-like assay: TLR4:Fc captured on protein A coated plates at 0 to 35 nM, 6xHis tagged MD-2 added at 12 nM without or with LPS (0.1, 1, 10), detection with Ni-HRP, absorbance at 450 nm
[10] = molecular target: TLR4:Fc fusion protein (entire extracellular domain of hTLR4, amino acids 1-632, fused to the Fc portion of mouse IgG2a) (human; mouse) [IgG part: P01863]; experiment: ELISA-like assay: titrated TLR4:Fc on protein A plate, MD-2 at 12 nM with or without LPS, Ni-HRP detection (FIG. 4B)

Measured: binding

B1: N-terminally FLAG tagged and C-terminally 6×His tagged human MD-2, secreted by or expressed in transduced HEK293 cells (ligand, not shown: small tags and cut ends)
chain: QKQYWVCNSSDASISYTYCDKMQYPISINVNPCIELKGSKGLLHIFYIPRRDLKQLYFNLYITVNTMNLPKRKEVICRGSDDDYSFCRALKGETVNTTISFSFKGIKFSKGKYKCVVEAISGSPEEMLFCLEFVILHQPNSNHHHHHH
binds: [1] | [2] | [3] | [4] | [5] | [6] | [7]

B2: C-terminally 6×His tagged human MD-2, baculovirus-derived (Sf9 insect cells), purified (ligand)
chain: QKQYWVCNSSDASISYTYCDKMQYPISINVNPCIELKGSKGLLHIFYIPRRDLKQLYFNLYITVNTMNLPKRKEVICRGSDDDYSFCRALKGETVNTTISFSFKGIKFSKGKYKCVVEAISGSPEEMLFCLEFVILHQPNSNHHHHHH
notes: Purified from supernatants (secreted); also called MD-2^6xHis; MD-2^6×His
binds: [8] | [9] | [10]
